Reference: the supplement of paper PMC4749390
Counter-ions that a name gives are not always drawn. Some of the results follow. Repeats in this data set agree poorly, so a single value says little.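 JEG3 cells stably express tetracycline-inducible wild-type human LRH-1, a highly sumoylated nuclear receptor. SUMO-sensitive transcripts APOC3 and MUC1, increased by SUMO-deficient LRH-1 or UBC9 knockdown, were quantified by RT-qPCR relative to TBP and DMSO controls. Primary hits had robust Z-scores above +2 or below -2, before toxicity and TBP filtering.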

The molecules below were run on JEG3 expressing hLRH-1 (assay: MUC1 transcript change (ddCt vs TBP and DMSO), Z-score over library; higher = higher MUC1 expression). Conditions: 10 µM; time (hr): 24.
In the case of CC1(C)C(C=C(Cl)Cl)C1C(=O)OCc1cccc(Oc2ccccc2)c1 (configuration not stated) [permethrin], the “MUC1 transcript change (Z-score)” value is reported as 1.44. With CCN1C[C@]2(COC)[C@H](O)C[C@H](OC)[C@@]34[C@@H]5C[C@@]6(O)[C@H](OC(=O)c7ccccc7)[C@@H]5[C@@](OC(C)=O)([C@@H]([C@H](OC)[C@H]23)[C@@H]14)[C@@H](O)[C@@H]6OC [aconitine] the “MUC1 transcript change (Z-score)” value was 0.68. For NC(=O)CS(=O)C(c1ccccc1)c1ccccc1 (configuration not stated) [modafinil], the “MUC1 transcript change (Z-score)” value was 0.506. In the case of CNC(=O)Oc1ccc2c(c1)[C@]1(C)CCN(C)[C@@H]1N2C [(-)-Physostigmine], the “MUC1 transcript change (Z-score)” value is reported as 0.187. In the case of C=C(C)C1CNC(C(=O)O)C1CC(=O)O (configuration not stated) [kainic acid], the “MUC1 transcript change (Z-score)” value is reported as -0.358. With CC[C@@H](c1cccc(O)c1)[C@@H](C)CN(C)C [tapentadol hydrochloride] the “MUC1 transcript change (Z-score)” value was 0.387. With O=c1c2ccccc2[se]n1-c1ccccc1 [ebselen] the “MUC1 transcript change (Z-score)” value was 1.15. NCC(O)c1ccc(O)cc1 (racemic) [(±)-Octopamine hydrochloride] was tested, and the “MUC1 transcript change (Z-score)” value was 0.729. For N=C1NC(=O)N2CC12 (configuration not stated) [imexon], the “MUC1 transcript change (Z-score)” value was 2.44. In the case of Cc1cccc(C)c1NC1=NCCCS1 [Xylazine hydrochloride], the “MUC1 transcript change (Z-score)” value is reported as -0.00037. In the case of C=C[C@H]1CN2CC[C@H]1C[C@@H]2[C@H](O)c1ccnc2ccccc12 [cinchonine], the “MUC1 transcript change (Z-score)” value is reported as 0.799. For C#C[C@@H]1CC2C3CCC4=C[C@@H](OC(C)=O)CCC4C3CC[C@]2(C)[C@H]1OC(C)=O (some centres not stated) [ethynodiol diacetate], the “MUC1 transcript change (Z-score)” value was -0.501. C[C@@H]1O[C@@H](O[C@H]2C[C@@H](O)[C@]3(CO)[C@H]4[C@H](O)C[C@]5(C)[C@@H](C6=CC(=O)OC6)CC[C@]5(O)[C@@H]4CC[C@]3(O)C2)[C@H](O)[C@H](O)[C@H]1O [ouabain] was tested, and the “MUC1 transcript change (Z-score)” value was -0.382. In the case of C[C@]12CC[C@H]3[C@@H](CC[C@@]45O[C@@H]4C(O)=C(C#N)C[C@]35C)[C@@H]1CC[C@@H]2O [trilostane], the “MUC1 transcript change (Z-score)” value is reported as -0.0585. COc1ccc(CCN2CCC(Nc3nc4ccccc4n3Cc3ccc(F)cc3)CC2)cc1 [astemizole] was tested, and the “MUC1 transcript change (Z-score)” value was 0.894. O=[N+]([O-])O[C@@H]1CO[C@H]2[C@@H]1OC[C@@H]2O [isosorbide mononitrate] was tested, and the “MUC1 transcript change (Z-score)” value was -0.0407. For COc1ccc(Cc2nccc3cc(OC)c(OC)cc23)cc1OC [Papaverine hydrochloride], the “MUC1 transcript change (Z-score)” value was -2.33. With C[N+]1(C)C2CCC1CC(OC(=O)C(CO)c1ccccc1)C2 (configuration not stated) [methylatropine nitrate] the “MUC1 transcript change (Z-score)” value was 1.21. For CNCC(=O)c1ccc(O)c(O)c1 [adrenolone hydrochloride], the “MUC1 transcript change (Z-score)” value was 0.0646. With COc1cc2c(cc1OC)[C@@]13CCN4CC5=CCO[C@H]6CC(=O)N2[C@H]1[C@H]6[C@H]5C[C@H]43 [brucine] the “MUC1 transcript change (Z-score)” value was 0.754. For C[N+]1(C)C2CC(OC(=O)[C@@H](CO)c3ccccc3)CC1C1OC12 (stereo in doubt) [methscopolamine bromide], the “MUC1 transcript change (Z-score)” value was 0.528. In the case of CC(C)(C)NCC(O)c1cc(Cl)c(N)c(Cl)c1 (configuration not stated) [clenbuterol hydrochloride], the “MUC1 transcript change (Z-score)” value is reported as -0.246. In the case of CCN(C(C)=O)c1cccc(-c2ccnc3c(C#N)cnn23)c1 [zaleplon], the “MUC1 transcript change (Z-score)” value is reported as 0.0394. With COC(=O)C1=CCCN(C)C1 [Arecoline hydrobromide] the “MUC1 transcript change (Z-score)” value was 0.413. Oc1noc2c1CCNC2 [THIP hydrochloride] was tested, and the “MUC1 transcript change (Z-score)” value was -0.925. With COc1cc([C@@H]2c3cc4c(cc3[C@H](O)[C@H]3COC(=O)[C@H]23)OCO4)cc(OC)c1OC [podofilox] the “MUC1 transcript change (Z-score)” value was -0.447. For CC(=O)O[C@H]1C[C@H](O[C@H]2[C@@H](O)C[C@H](O[C@H]3[C@@H](O)C[C@H](O[C@H]4CC[C@@]5(C)[C@H](CC[C@@H]6[C@@H]5C[C@@H](O)[C@]5(C)[C@@H](C7=CC(=O)OC7)CC[C@]65O)C4)O[C@@H]3C)O[C@@H]2C)O[C@H](C)[C@H]1O[C@@H]1O[C@H](CO)[C@@H](O)[C@H](O)[C@H]1O [lanatoside c], the “MUC1 transcript change (Z-score)” value was -0.941. With O=[N+]([O-])OCC(CO[N+](=O)[O-])O[N+](=O)[O-] [nitroglycerin] the “MUC1 transcript change (Z-score)” value was 1.33. With CCC1(C2=NCCN2)Cc2ccccc2O1 (configuration not stated) [efaroxan] the “MUC1 transcript change (Z-score)” value was 0.0047. For CC[C@H]1CN2CCC1C[C@@H]2[C@@H](O)c1ccnc2ccc(OC)cc12 (some centres not stated) [hydroquinidine], the “MUC1 transcript change (Z-score)” value was 1.27. CC[C@@H](CO)NC(=O)[C@@H]1C=C2c3cccc4c3c(cn4C)C[C@H]2N(C)C1 [methysergide maleate] was tested, and the “MUC1 transcript change (Z-score)” value was 0.645. In the case of CCN(C)C(=O)Oc1cccc([C@H](C)N(C)C)c1 [rivastigmine tartrate], the “MUC1 transcript change (Z-score)” value is reported as 0.5. For COc1ccc2c(c1OC)C(=O)O[C@@H]2[C@H]1c2cc3c(cc2CCN1C)OCO3 [hydrastine (1r, 9s)], the “MUC1 transcript change (Z-score)” value was -0.084. C[C@]12CC[C@H](O)CC1=CCC1C2CC[C@]2(C)C(=O)CC[C@@H]12 (some centres not stated) [prasterone] was tested, and the “MUC1 transcript change (Z-score)” value was -0.56. For C=C[C@H]1CN2CC[C@H]1C[C@@H]2[C@@H](OC(=O)OCC)c1ccnc2ccc(OC)cc12 [quinine ethyl carbonate], the “MUC1 transcript change (Z-score)” value was 0.52. CCCCCCCCCCCCCCCC[n+]1ccccc1 [cetylpyridinium chloride] was tested, and the “MUC1 transcript change (Z-score)” value was 0.69. With c1ccc2c(c1)Nc1ccccc1S2 [phenothiazine] the “MUC1 transcript change (Z-score)” value was -0.536. For [NH2][Pt]1([NH2])[O]C(=O)C2(CCC2)C(=O)[O]1 [carboplatin], the “MUC1 transcript change (Z-score)” value was 1.05. For c1ccc2c(c1)OCC(C1=NCCN1)O2 (configuration not stated) [idazoxan hydrochloride], the “MUC1 transcript change (Z-score)” value was -0.898. For CCOP(=S)(OCC)Oc1nc(Cl)c(Cl)cc1Cl [chlorpyrifos], the “MUC1 transcript change (Z-score)” value was -0.478. With CC(=O)NC1CCSC1=O (configuration not stated) [citiolone] the “MUC1 transcript change (Z-score)” value was -0.561. For CNC(=O)Oc1ccccc1OC(C)C [propoxur], the “MUC1 transcript change (Z-score)” value was -0.663. For COC(=O)C(c1ccccc1)C1CCCCN1 (configuration not stated) [methylphenidate hydrochloride], the “MUC1 transcript change (Z-score)” value was 0.758. With CCOc1cc(C=O)ccc1O [ethyl vanillin] the “MUC1 transcript change (Z-score)” value was -0.554. In the case of C=C1C[C@@H]2[C@H](CC[C@]3(C)C(=O)CC[C@@H]23)[C@@]2(C)C=CC(=O)C=C12 [exemestane], the “MUC1 transcript change (Z-score)” value is reported as 0.0289. In the case of CCNC1(c2cccs2)CCCCC1=O (configuration not stated) [tiletamine hydrochloride], the “MUC1 transcript change (Z-score)” value is reported as -0.239. With O=[N+]([O-])c1ccc([As](=O)(O)O)cc1 [nitarsone] the “MUC1 transcript change (Z-score)” value was 1.23. With NN=C(N)N [Aminoguanidine hemisulfate] the “MUC1 transcript change (Z-score)” value was -0.722. CCC1(CC)C(=O)C=CNC1=O [pyrithyldione] was tested, and the “MUC1 transcript change (Z-score)” value was 0.212. CN1C2CCC1CC(OC(=O)C(CO)c1ccccc1)C2 (configuration not stated) [Atropine sulfate] was tested, and the “MUC1 transcript change (Z-score)” value was 0.799. With O=C1CCO1 [beta-propiolactone] the “MUC1 transcript change (Z-score)” value was -0.849. For CCC1(CC)C(=O)NC(=O)NC1=O [barbital], the “MUC1 transcript change (Z-score)” value was -0.903. In the case of CN1CC(CNC(=O)OCc2ccccc2)C[C@H]2c3cccc4c3c(cn4C)CC21 (stereo in doubt) [metergoline], the “MUC1 transcript change (Z-score)” value is reported as -0.843. With CC(C)c1c(CN(C)C(C)Cc2ccccc2)n(C)n(-c2ccccc2)c1=O (configuration not stated) [famprofazone] the “MUC1 transcript change (Z-score)” value was 0.408. For CC[C@H]1CN2CCc3cc(OC)c(OC)cc3C2C[C@@H]1CC1NCCc2cc(OC)c(OC)cc21 (some centres not stated) [emetine], the “MUC1 transcript change (Z-score)” value was 6.08. In the case of COc1ccc(OC)c(C(O)C(C)N)c1 (configuration not stated) [Methoxamine hydrochloride], the “MUC1 transcript change (Z-score)” value is reported as -0.184. NCCCNCCSP(=O)(O)O [amifostine] was tested, and the “MUC1 transcript change (Z-score)” value was 0.137. In the case of Cc1cccc(C)c1NC(=O)CN1CCCC1=O [nefiracetam], the “MUC1 transcript change (Z-score)” value is reported as 0.491. In the case of CCCCCCCCC(=O)NCc1ccc(O)c(OC)c1 [N-Vanillylnonanamide], the “MUC1 transcript change (Z-score)” value is reported as -0.0367. For CCCCCCCCCCNCCC.CCCN.CCCNCCCCCC[N+](C)(C)C.ClCC1CO1 [colesevalam hydrochloride (high mol wt copolymer @10mg/ml)], the “MUC1 transcript change (Z-score)” value was 0.874. In the case of CN(C)C(=O)Oc1ccc[n+](C)c1 [Pyridostigmine bromide], the “MUC1 transcript change (Z-score)” value is reported as -0.0612. With C[C@]12CCC(=O)C=C1C=CC1C2CC[C@@]2(C)C1CC[C@@]2(O)CCC(=O)O (some centres not stated) [canrenoic acid, potassium salt] the “MUC1 transcript change (Z-score)” value was 0.517. With C[C@H](N)[C@H](O)c1ccccc1 [L(-)-Norephedrine] the “MUC1 transcript change (Z-score)” value was 1.44. With CN1CCc2cc3c(cc2C1O)OCO3 (configuration not stated) [hydrastinine hydrochloride] the “MUC1 transcript change (Z-score)” value was -0.23. For CN1[C@H]2C[C@H](OC(=O)[C@H](CO)c3ccccc3)C[C@@H]1[C@@H](O)C2 [anisodamine hydrobromide], the “MUC1 transcript change (Z-score)” value was -0.145. With O=C(O)CCCO [sodium oxybate] the “MUC1 transcript change (Z-score)” value was 1.03. In the case of CNCC(O)c1ccc(O)cc1 (configuration not stated) [oxedrine], the “MUC1 transcript change (Z-score)” value is reported as -0.49. CC[C@@H](CO)NC(=O)[C@@H]1C=C2c3cccc4[nH]cc(c34)C[C@H]2N(C)C1 [methylergonovine maleate] was tested, and the “MUC1 transcript change (Z-score)” value was 0.489. With CN1CCC[C@@H]1Cc1c[nH]c2cc(CCS(=O)(=O)c3ccccc3)ccc12 [eletriptan hydrobromide] the “MUC1 transcript change (Z-score)” value was 0.394. In the case of CC(C)C[C@H]1C(=O)N2CCC[C@H]2[C@]2(O)O[C@](NC(=O)[C@@H]3C=C4c5cccc6[nH]c(Br)c(c56)C[C@H]4N(C)C3)(C(C)C)C(=O)N12 [bromocriptine mesylate], the “MUC1 transcript change (Z-score)” value is reported as 0.287. CC(C)=CC1C(C(=O)OCc2cccc(Oc3ccccc3)c2)C1(C)C (configuration not stated) [phenothrin] was tested, and the “MUC1 transcript change (Z-score)” value was 0.293. CN1C(=O)CCS(=O)(=O)C1c1ccc(Cl)cc1 (configuration not stated) [Chlomezanone] was tested, and the “MUC1 transcript change (Z-score)” value was 0.675. With C#CC1(O)CCC2C3CCC4=CC(=O)CCC4(C)C3CCC21C (configuration not stated) [ethisterone] the “MUC1 transcript change (Z-score)” value was 0.908. For CNC(C)(C)Cc1ccccc1 [mephentermine sulfate], the “MUC1 transcript change (Z-score)” value was 1.09. C[C@@H]1CC[C@H]2[C@@H](C)C(=O)O[C@@H]3O[C@@]4(C)CC[C@@H]1[C@]32OO4 [artemisinin] was tested, and the “MUC1 transcript change (Z-score)” value was -0.188. In the case of c1ccc2nc(N3CCNCC3)ccc2c1 [Quipazine dimaleate], the “MUC1 transcript change (Z-score)” value is reported as -0.0671. In the case of CC1[C@H](C)OC(=O)CC(O)CC(O)CC(O)CCC(O)C(O)C[C@]2(O)CC(O)C(C(=O)O)C(CC(OC3O[C@H](C)[C@@H](O)[C@H](N)[C@@H]3O)/C=C/C=C/C=C/C=C/CC/C=C/C=C/[C@H](C)[C@H]1O)O2 (some centres not stated) [nystatin], the “MUC1 transcript change (Z-score)” value is reported as 0.255.
